Single values of this set are uncertain.
B1: Rpb7; numbered along this chain (parent)
chain: MFFIKDLSLNITLHPSFFGPRMKQYLKTKLLEEVEGSCTGKFGYILCVLDYDNIDIQRGRILPTDGSAEFNVKYRAVVFKPFKGEVVDGTVVSCSQHGFEVQVGPMKVFVTKHLMPQDLTFNAGSNPPSYQSSEDVITIKSRIRVKIEGCISQVSSIHAIGSIKEDYLGAI

Assays:
[1] = variants of: B1; experiment: log2 fold change of mutant abundance, UV-irradiated vs unirradiated; higher = more UV resistant (enriched after UV); conditions: with Saccharomyces cerevisiae rad7Δ rad26Δ; UV dose (J/m2): 10; genetic background: rad7Δ rad26Δ rpb7Δ + plasmid RPB7 library; outgrowth: 10 cell divisions
[2] = variants of: B1; experiment: NOISeq theta enrichment statistic, UV-irradiated vs unirradiated (dimensionless); higher = more UV resistant (enriched after UV); conditions: with Saccharomyces cerevisiae rad7Δ rad26Δ; UV dose (J/m2): 10; genetic background: rad7Δ rad26Δ rpb7Δ + plasmid RPB7 library; outgrowth: 10 cell divisions

Variant	log2 fold change of mutant abundance [1]	NOISeq theta enrichment statistic [2]
K107Y	0.331	0.277
K107L	0.15	0.163
K107E	0.0857	0.327
K107D	0.143	0.139
K107R	-0.0285	-0.121
K107H	-0.0532	-0.032
K107T	0.0609	0.219
K107M	-0.08	-0.0654
K107P	0.124	0.0741
K107S	0.205	0.186
K107A	0.226	0.192
K107I	-0.0278	-0.127
K107Q	-0.0427	-0.147
K107V	0.269	0.277
K107N	0.0991	0.53
K107G	0.099	0.12
P116K	-0.953	-0.501
P116Q	0.0517	0.0616
P116N	-0.0504	-0.0483

Variant	log2 fold change of mutant abundance [1]	NOISeq theta enrichment statistic [2]
P116L	-0.123	-0.252
P116Y	0.523	0.315
P116D	0.482	0.315
P116A	-0.0616	-0.133
P116T	0.0232	0.134
P116I	0.105	0.0935
P116S	-0.05	-0.129
P116R	-0.0373	-0.0586
P116H	-0.0476	-0.322
L119Y	0.0362	0.0271
L119F	-0.123	-0.76
L119Q	0.587	0.335
L119I	-0.0101	-0.0469
L119W	1.15	0.672
L119G	0.081	0.0554
L119K	0.386	0.225
L119C	0.0389	0.0267
L119R	0.0389	0.0293
L119V	-0.0309	-0.0779

Single records, as listed above. Order of values: log2 fold change of mutant abundance [1]	NOISeq theta enrichment statistic [2]
P116L in the list: -0.123	-0.252
L119W in the list: 1.15	0.672
P116D in the list: 0.482	0.315
P116H in the list: -0.0476	-0.322

More entries.

Variant	log2 fold change of mutant abundance [1]	NOISeq theta enrichment statistic [2]
L119M	-0.169	-0.125
L119S	-0.233	-0.424
Q117Y	0.557	0.345
Q117N	-0.0756	-0.0685
Q117P	0.0357	0.0777
Q117T	-0.00439	-0.00487
Q117V	0.129	0.0782
Q117H	-0.00509	-0.0349
Q117S	-0.138	-0.162
Q117R	-0.0224	-0.0979
Q117D	0.545	0.294
Q117E	0.0155	0.0303
Q117K	-0.0457	-0.205
Q117I	-0.406	-0.26
Q117L	0.0946	0.472
Q117A	0.0108	0.00673
T111D	0.181	0.179
T111M	0.853	0.71
T111Q	0.00332	0.0043

From the supplement of paper PMC10382679
